Here are results for one molecule from article PMC12492975.

Chains of the proteins cited; added tags and fusions are not shown.
UniProt Q709C8: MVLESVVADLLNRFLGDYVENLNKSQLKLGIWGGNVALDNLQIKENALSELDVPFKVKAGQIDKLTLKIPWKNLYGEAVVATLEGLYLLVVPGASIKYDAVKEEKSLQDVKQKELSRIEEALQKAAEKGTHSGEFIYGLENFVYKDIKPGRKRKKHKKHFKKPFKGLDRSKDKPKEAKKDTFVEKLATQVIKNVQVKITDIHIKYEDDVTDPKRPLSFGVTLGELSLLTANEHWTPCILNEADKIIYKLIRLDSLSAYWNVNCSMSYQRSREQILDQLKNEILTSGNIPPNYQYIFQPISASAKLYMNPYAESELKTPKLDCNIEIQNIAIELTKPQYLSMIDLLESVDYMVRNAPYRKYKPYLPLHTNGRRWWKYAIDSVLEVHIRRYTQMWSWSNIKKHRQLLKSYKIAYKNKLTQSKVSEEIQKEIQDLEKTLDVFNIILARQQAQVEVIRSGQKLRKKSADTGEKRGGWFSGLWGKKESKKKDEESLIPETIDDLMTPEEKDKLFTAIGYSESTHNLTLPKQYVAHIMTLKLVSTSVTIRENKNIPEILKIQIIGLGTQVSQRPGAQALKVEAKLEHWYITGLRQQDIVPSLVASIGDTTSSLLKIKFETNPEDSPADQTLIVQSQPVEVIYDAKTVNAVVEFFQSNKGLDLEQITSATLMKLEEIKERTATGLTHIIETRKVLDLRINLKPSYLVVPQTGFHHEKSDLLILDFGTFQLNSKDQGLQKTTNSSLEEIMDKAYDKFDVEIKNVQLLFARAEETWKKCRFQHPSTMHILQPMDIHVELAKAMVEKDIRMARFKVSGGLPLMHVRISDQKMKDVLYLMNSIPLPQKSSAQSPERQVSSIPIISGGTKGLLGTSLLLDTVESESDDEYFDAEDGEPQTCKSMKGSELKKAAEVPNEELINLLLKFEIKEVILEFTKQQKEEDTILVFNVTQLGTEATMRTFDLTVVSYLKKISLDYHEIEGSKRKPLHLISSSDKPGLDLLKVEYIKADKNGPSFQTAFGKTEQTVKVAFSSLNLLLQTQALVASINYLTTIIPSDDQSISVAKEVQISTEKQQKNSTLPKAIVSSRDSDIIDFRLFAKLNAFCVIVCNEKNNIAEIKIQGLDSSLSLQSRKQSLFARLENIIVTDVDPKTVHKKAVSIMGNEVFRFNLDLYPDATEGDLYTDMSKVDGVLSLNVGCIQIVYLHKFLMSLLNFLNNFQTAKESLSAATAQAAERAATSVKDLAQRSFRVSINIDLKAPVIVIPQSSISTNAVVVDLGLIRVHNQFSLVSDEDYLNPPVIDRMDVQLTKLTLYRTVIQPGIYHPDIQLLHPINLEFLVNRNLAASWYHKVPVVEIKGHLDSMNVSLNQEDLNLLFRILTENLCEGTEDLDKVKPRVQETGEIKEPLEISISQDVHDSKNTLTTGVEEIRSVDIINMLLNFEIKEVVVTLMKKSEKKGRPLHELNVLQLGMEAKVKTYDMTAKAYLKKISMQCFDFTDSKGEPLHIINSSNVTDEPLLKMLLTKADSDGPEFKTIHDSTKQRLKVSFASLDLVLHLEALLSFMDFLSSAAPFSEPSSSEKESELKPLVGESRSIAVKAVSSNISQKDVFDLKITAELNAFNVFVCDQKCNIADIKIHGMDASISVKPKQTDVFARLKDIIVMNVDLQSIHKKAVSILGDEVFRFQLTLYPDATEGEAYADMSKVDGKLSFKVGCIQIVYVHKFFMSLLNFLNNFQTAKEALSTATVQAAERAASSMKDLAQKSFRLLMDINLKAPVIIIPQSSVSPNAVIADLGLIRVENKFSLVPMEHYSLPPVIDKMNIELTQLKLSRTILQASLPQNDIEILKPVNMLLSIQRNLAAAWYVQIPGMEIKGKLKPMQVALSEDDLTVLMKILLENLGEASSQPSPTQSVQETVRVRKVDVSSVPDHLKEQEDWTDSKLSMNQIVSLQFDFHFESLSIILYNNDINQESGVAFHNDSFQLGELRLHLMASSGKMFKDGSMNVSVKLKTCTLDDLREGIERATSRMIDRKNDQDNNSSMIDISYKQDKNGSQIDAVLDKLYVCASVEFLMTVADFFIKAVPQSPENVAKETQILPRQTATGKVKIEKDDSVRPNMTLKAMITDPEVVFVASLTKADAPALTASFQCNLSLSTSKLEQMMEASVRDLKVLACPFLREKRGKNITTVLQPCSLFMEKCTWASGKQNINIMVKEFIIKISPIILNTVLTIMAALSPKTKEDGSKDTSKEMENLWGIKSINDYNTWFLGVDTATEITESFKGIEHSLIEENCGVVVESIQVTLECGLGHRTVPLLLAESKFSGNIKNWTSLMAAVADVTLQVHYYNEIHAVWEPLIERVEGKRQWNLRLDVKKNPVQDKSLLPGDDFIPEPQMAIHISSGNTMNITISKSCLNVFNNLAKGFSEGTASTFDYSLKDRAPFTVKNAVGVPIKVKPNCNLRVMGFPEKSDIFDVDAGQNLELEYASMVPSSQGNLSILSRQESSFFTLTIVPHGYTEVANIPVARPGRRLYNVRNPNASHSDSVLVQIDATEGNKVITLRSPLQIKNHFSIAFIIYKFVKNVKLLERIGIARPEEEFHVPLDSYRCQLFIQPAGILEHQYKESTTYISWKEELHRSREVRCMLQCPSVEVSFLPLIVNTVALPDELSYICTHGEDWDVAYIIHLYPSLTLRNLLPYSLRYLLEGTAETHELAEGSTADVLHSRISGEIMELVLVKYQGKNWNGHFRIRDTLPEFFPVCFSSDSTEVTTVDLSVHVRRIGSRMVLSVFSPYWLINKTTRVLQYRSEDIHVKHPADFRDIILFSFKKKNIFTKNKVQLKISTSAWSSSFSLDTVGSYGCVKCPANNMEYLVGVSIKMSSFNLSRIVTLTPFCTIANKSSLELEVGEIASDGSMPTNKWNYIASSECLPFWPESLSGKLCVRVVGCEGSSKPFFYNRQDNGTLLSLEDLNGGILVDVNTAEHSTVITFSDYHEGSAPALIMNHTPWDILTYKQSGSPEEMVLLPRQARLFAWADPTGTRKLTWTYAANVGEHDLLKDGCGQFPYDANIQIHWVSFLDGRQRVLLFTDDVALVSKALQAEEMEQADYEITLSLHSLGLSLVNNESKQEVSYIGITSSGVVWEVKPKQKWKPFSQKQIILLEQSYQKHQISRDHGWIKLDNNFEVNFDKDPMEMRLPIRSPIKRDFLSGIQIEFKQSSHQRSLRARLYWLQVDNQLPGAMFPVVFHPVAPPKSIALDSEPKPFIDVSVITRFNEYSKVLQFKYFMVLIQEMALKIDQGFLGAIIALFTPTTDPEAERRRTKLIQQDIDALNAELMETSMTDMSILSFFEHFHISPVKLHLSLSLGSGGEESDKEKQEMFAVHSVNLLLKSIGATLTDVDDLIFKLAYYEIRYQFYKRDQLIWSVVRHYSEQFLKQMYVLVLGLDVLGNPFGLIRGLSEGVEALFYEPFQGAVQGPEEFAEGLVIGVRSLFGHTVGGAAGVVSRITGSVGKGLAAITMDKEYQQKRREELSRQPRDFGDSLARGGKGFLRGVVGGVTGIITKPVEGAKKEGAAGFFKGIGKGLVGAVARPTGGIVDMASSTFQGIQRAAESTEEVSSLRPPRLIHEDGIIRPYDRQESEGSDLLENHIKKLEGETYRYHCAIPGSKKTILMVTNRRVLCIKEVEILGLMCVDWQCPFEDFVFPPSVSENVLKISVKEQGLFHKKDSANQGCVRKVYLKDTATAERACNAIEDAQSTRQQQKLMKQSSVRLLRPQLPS

Results are given in words; binding and its absence hold for the method and conditions named. Binding seen in cells or lysates may run through a third protein.

Assay [1] concerns the target VPS13C (human (endogenous in HeLa)) (UniProt Q709C8). Description: co-IP.
The target in assay [2] is VPS13C^mClover3 (UniProt Q709C8). Description: co-IP.

B1: SopD2-RFP (protein, UniProt Q8ZQC8 1-319)
chain: MPVTLSFGNRHNYEINHSRLARLMSPDKEEALYMGVWDRFKDCFRTHKKQEVLEVLYTLIHGCERENQAELNVDITGMEKIHAFTQLKEYANPSQQDRFVMRFDMNQTQVLFEIDGKVIDKCNLHRLLNVSENCIFKVMEEDEEELFLKICIKYGEKISRYPELLEGFANKLKDAVNEDDDVKDEVYKLMRSGEDRKMECVEWNGTLTEEEKNKLRCLQMGSFNITTQFFKIGYWELEGEVLFDMVHPTLSYLLQAYKPSLSSDLIETNTMLFSDVLNKDYDDYQNNKREIDAILRRIYRSHNNTLFISEKSSCRNMLI
With B1, the binding entry in assay [1] and in assay [2] was “no binding” in each case.
